# Measured values as given in PubChem BioAssay (EPA / NIEHS).
# Inconclusive results, whose numbers are uncertain, are shown with a selection of clear calls. Potencies of inconclusive entries are doubtful fits and often do not repeat. The source made the active and inactive calls. How the source made its calls: active means hit-call score of the fitted dose curve at least 0.9, where 1 is the maximum; inconclusive means response in the unintended direction; inactive means score below 0.9.
# Target: CDK2 (gene 1017) (UniProt P24941)
# Assay: NVS_ENZ_hCDK2: NovaScreen (NVS) Enzymatic Assay for human Cyclin-Cependent Kinase 2 (CDK2) (AID 2283144)
# In short: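 Cell-free recombinant human CDK2 with fluorescent substrate, product separated by electrophoretic mobility shift; 1 hr read. Primary screen at 25 uM in duplicate, actives retested in concentration-response up to 50 uM; loss of signal versus DMSO.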
Structure (SMILES),outcome,AC50
CCCN(CCC)N=O,inactive,–
CNC(=O)Oc1cccc2c1OC(C)(C)C2,–,inconclusive: 25 µM
O=C(N[C@H]1CN2CCC1CC2)c1ccc2c(c1)OCCO2,–,inconclusive: 25 µM
